The values that follow are results of earlier work, collected in PMC10060569 (Frontiers in Pharmacology, 2023).

Where “and” joins values, the source holds several entries; their conditions need not be identical. Equal entries are not always repeated.

The conditions of this series: administered orally; ref Desager et al., 1976; Dresse et al., 1978; cited from earlier work.

Take `COc1ccc2cc([C@H](C)C(=O)O)ccc2c1` [Naproxen, naproxen]: the “maximum plasma levels, oral” value is 70–80 μg/ml and 300–350 µM; the “time to maximum plasma levels, oral” value was “about 2 h”.
